Assay results published in publication PMC6915726.
These are yes or no findings as the source states them, for the method shown. In cells and extracts the contact can be indirect. A yes stands for co-enrichment or nearness to the bait. Other partners may have been found.

Protein sequences, listed by entry. Tags and fused reporters are not part of them.
UniProt O88895: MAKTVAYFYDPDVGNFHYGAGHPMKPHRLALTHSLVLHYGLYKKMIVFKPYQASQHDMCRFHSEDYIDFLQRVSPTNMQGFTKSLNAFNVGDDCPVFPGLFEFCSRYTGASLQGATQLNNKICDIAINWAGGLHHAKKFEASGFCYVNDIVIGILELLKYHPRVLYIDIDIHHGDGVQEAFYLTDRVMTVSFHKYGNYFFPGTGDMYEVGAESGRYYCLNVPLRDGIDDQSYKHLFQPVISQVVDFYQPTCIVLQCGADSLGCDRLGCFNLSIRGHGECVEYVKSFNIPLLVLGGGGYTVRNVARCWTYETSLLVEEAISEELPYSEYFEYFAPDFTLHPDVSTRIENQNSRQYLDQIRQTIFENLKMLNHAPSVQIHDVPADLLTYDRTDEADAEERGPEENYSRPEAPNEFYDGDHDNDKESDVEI
UniProt Q60974: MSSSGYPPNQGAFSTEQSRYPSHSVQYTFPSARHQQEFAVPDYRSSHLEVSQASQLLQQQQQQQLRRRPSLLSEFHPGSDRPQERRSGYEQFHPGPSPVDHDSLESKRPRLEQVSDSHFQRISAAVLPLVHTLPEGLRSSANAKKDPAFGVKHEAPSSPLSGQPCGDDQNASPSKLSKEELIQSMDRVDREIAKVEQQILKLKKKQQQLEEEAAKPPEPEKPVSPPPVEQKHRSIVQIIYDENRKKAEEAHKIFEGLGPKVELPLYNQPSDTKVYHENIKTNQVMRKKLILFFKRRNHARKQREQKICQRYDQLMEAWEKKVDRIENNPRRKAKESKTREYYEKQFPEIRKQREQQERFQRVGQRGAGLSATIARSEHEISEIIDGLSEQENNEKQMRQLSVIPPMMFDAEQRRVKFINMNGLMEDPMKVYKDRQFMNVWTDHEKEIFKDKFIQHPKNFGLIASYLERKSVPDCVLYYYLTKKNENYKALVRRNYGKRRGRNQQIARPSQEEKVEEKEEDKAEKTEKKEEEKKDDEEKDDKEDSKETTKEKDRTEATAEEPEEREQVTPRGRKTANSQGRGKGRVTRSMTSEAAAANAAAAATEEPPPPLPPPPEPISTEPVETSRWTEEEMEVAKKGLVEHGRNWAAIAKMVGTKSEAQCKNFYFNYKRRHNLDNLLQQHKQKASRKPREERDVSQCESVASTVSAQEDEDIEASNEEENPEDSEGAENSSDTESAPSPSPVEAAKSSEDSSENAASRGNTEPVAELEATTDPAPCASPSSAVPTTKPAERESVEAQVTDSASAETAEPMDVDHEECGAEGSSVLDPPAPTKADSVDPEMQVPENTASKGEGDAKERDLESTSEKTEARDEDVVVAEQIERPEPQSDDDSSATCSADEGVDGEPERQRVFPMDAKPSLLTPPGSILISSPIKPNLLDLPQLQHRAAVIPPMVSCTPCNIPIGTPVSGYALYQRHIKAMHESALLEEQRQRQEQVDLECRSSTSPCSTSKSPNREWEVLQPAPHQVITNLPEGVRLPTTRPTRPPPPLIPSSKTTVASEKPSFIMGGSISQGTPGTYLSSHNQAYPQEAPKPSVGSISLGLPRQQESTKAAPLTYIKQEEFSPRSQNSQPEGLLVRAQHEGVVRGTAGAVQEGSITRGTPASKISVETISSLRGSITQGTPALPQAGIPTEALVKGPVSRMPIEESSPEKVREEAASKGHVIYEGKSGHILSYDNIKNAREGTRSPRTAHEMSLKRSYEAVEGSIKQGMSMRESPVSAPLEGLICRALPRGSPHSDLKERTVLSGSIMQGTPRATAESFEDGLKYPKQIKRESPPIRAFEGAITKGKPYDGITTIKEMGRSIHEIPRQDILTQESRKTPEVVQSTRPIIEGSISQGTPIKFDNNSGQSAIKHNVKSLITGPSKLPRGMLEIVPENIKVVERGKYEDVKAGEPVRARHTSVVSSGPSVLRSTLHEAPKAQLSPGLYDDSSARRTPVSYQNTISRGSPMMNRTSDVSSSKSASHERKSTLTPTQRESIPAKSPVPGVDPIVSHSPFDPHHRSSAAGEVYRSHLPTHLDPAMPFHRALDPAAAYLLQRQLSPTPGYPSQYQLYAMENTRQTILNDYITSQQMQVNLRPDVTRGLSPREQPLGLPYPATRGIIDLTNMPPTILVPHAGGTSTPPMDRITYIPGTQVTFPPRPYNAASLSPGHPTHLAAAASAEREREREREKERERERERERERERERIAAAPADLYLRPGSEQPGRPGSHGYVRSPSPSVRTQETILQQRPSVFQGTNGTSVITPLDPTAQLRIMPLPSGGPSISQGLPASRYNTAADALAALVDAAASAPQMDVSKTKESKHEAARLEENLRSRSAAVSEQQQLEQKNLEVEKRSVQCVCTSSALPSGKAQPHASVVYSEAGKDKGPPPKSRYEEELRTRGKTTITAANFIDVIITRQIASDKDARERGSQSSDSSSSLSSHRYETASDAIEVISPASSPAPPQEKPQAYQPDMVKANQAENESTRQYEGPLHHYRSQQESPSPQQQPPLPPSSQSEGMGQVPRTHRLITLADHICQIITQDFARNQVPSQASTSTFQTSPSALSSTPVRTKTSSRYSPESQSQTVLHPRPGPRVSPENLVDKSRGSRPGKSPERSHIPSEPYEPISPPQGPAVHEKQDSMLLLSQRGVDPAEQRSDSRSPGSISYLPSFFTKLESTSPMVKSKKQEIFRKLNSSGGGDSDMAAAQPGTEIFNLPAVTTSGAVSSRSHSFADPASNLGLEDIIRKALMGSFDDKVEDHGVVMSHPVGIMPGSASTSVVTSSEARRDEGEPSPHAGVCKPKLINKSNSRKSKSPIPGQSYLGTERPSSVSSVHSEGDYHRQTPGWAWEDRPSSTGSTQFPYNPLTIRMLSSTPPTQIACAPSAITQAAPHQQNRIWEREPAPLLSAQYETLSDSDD

Biological target: histone deacetylase 3 (mouse (endogenous in granulosa cells)) (UniProt O88895)
Test: affinity purification with mass spectrometry; Co-IP of endogenous HDAC3 from total lysate of granulosa cells (mice, PMSG 46 h) with anti-HDAC3 antibody on Dynabeads Protein G, 1 h at room temperature; normal rabbit IgG as control; LC-MS of the eluate

binding: binds
Substance: NCoR1 (from UniProt Q60974 1-2453)
